Data as given in the supplement of paper PMC10849652.
This is one part of the list.

Sequences of proteins named here, by UniProt entry; tags and fusion partners are left off. A change or cut given only in a name is not applied to a line headed by its entry.
UniProt Q9UJS0: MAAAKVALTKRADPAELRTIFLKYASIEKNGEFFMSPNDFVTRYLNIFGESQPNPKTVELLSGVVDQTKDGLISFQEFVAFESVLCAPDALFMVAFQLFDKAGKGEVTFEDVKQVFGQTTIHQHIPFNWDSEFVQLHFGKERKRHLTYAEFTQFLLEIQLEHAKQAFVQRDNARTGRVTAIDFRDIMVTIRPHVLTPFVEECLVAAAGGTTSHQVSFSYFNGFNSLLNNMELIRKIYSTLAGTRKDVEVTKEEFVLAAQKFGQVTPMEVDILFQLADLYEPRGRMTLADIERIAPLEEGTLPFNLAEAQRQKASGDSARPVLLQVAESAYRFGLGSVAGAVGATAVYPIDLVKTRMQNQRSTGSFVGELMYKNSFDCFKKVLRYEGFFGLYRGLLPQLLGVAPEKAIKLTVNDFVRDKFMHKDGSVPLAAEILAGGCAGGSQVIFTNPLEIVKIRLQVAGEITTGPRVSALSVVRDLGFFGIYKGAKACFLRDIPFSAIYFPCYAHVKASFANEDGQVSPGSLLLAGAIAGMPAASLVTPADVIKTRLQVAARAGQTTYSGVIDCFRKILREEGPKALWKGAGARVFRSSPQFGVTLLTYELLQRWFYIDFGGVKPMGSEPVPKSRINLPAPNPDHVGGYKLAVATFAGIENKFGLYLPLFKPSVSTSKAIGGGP
UniProt P11166: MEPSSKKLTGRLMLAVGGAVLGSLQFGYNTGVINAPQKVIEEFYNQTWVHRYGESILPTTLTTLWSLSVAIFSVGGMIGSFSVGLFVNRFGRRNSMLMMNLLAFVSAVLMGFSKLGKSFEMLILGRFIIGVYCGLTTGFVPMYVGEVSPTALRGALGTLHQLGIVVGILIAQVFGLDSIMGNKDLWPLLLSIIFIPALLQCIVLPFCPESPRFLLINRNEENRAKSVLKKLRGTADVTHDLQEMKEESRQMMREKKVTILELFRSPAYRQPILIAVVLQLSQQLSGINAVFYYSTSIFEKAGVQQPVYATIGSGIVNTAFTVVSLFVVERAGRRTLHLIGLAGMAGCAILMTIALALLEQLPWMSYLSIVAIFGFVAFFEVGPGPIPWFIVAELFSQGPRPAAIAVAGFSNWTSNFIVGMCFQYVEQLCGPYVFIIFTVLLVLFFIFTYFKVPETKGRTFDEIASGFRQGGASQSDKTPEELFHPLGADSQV
UniProt O00400: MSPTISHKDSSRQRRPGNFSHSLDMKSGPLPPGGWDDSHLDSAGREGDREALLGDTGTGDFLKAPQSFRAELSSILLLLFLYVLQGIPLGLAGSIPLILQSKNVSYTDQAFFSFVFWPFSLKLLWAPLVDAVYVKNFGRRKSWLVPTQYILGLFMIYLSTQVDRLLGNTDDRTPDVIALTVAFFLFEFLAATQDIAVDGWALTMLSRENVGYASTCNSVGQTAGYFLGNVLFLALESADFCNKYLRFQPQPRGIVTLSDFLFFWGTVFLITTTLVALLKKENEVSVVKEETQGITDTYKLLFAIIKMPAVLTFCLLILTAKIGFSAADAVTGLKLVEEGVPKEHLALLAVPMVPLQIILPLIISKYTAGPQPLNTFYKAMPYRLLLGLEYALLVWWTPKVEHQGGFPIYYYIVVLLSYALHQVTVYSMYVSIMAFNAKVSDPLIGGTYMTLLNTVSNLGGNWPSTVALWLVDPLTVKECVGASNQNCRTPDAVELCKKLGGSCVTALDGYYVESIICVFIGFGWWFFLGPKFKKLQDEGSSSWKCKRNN
UniProt Q01650: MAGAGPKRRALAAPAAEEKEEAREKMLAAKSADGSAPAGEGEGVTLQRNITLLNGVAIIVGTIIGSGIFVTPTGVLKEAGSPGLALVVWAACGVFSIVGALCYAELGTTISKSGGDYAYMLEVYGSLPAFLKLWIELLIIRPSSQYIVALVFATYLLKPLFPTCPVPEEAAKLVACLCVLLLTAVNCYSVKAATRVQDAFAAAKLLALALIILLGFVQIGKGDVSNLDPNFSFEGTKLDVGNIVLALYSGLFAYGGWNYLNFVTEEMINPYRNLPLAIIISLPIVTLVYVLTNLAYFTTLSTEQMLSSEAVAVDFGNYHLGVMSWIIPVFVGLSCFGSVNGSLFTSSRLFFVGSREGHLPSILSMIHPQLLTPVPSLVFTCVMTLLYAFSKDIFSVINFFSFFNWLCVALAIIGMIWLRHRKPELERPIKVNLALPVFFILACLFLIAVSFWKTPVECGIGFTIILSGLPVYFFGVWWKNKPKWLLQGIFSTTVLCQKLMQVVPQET
UniProt Q8NBI5: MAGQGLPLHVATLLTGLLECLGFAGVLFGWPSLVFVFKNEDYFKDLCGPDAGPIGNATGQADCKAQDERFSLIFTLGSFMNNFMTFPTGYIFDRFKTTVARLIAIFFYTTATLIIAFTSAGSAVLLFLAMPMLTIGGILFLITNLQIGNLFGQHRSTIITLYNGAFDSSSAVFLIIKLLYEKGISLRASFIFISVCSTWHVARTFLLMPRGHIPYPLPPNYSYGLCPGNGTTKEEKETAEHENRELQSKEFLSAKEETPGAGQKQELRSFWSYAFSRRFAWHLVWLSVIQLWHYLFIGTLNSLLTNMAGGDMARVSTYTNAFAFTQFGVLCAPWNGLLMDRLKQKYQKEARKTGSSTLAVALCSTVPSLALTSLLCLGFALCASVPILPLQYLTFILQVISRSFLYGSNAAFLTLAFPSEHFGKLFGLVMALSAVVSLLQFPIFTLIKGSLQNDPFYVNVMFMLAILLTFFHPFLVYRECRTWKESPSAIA
UniProt Q9BWU0: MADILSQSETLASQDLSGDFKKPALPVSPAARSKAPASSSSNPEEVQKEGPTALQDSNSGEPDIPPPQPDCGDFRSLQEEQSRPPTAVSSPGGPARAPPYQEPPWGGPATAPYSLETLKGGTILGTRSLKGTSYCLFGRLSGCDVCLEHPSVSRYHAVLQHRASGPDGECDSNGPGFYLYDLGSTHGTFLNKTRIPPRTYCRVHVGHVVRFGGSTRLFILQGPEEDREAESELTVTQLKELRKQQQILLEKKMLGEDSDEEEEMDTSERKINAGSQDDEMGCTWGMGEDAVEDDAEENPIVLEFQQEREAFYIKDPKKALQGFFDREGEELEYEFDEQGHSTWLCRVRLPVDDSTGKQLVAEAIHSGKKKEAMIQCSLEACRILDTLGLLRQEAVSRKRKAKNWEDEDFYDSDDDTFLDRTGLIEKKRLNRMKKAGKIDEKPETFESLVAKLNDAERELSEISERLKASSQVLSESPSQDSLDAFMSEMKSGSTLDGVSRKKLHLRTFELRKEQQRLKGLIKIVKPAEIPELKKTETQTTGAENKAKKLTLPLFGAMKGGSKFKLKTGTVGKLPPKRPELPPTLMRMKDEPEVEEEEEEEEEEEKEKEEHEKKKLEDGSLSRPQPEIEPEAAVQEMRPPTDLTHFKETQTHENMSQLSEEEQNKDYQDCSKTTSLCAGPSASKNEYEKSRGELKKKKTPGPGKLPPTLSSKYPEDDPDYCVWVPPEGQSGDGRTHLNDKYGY
UniProt Q9BQT8: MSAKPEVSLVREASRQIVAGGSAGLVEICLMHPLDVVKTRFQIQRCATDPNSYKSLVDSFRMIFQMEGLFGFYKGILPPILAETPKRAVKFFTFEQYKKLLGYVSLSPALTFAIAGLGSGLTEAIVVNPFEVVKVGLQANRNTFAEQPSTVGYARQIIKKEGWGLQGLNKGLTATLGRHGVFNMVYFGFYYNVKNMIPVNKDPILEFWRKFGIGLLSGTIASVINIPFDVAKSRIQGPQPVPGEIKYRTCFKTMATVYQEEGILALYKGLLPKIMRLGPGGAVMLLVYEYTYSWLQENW
UniProt P12235: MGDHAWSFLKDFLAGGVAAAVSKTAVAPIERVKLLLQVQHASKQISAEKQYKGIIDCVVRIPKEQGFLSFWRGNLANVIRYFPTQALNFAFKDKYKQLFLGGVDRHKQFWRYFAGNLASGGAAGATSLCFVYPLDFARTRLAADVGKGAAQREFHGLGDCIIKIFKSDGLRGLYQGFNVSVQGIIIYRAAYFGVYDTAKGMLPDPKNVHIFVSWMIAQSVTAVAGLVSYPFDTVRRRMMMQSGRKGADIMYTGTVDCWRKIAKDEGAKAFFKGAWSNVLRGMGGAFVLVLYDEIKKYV
UniProt Q86VD7: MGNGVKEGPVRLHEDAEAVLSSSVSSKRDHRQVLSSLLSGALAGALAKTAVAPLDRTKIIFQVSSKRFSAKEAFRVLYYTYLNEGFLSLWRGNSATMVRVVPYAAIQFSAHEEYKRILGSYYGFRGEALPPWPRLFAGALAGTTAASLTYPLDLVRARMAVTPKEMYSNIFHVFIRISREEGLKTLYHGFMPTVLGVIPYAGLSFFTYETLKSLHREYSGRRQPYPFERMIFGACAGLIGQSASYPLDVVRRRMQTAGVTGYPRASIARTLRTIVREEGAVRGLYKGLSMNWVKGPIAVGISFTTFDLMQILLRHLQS
UniProt Q13485: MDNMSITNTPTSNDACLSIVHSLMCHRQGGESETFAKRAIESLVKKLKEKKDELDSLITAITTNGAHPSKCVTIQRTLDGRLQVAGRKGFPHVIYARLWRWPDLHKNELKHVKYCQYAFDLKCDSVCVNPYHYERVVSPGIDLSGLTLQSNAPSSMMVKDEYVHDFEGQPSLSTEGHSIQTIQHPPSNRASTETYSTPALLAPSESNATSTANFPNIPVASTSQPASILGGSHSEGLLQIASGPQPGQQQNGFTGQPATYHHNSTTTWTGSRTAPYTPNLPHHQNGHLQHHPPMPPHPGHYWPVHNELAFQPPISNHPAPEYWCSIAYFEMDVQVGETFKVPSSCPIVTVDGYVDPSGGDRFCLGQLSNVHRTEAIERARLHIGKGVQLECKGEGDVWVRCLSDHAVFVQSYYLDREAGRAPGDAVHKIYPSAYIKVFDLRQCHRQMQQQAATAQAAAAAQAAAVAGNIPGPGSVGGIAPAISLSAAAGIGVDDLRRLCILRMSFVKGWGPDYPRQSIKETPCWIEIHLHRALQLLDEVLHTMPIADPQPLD
UniProt P48029: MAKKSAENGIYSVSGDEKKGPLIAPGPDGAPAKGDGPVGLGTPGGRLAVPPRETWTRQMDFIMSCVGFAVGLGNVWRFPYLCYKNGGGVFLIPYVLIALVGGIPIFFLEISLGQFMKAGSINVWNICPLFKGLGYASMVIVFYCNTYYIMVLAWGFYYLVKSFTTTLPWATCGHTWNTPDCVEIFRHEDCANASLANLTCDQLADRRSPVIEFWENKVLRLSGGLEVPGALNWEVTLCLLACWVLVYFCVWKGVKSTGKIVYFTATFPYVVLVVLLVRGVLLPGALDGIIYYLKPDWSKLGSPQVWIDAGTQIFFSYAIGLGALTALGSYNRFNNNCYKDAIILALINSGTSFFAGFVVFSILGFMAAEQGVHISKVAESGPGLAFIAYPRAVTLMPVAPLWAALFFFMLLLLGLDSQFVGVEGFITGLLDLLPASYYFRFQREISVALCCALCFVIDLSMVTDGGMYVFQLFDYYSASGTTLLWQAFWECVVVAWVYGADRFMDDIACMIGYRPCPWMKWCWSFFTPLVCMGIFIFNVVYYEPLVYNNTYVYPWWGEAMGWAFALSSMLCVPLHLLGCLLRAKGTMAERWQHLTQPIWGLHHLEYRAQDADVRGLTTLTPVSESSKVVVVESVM
UniProt Q9H0C2: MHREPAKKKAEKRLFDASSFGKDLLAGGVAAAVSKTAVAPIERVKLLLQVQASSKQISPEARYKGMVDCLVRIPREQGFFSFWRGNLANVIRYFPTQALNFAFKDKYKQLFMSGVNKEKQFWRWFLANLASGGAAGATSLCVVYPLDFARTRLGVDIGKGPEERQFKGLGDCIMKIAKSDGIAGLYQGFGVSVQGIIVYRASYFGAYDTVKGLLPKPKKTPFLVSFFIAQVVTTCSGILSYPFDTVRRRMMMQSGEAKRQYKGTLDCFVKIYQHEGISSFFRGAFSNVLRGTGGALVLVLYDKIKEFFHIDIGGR
UniProt Q8WU79: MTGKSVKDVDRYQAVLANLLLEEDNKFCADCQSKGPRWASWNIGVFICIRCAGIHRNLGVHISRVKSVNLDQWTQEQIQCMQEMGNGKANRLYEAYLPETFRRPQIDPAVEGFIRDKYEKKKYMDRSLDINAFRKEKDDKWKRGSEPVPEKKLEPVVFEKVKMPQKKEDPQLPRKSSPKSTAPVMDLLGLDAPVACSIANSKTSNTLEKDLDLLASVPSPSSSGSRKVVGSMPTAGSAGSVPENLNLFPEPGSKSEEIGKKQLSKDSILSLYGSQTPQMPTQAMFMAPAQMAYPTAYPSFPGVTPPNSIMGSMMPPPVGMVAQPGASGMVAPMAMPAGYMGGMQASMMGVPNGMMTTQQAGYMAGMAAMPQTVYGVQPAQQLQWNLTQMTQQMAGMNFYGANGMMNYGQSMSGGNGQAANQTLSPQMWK
UniProt P05141: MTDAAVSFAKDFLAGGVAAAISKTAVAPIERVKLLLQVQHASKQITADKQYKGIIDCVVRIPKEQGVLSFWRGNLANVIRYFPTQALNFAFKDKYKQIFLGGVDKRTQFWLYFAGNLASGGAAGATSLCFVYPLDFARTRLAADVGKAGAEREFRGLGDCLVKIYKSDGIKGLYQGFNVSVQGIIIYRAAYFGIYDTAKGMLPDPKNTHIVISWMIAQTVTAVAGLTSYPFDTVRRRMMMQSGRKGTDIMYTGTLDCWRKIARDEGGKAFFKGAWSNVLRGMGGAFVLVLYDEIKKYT

Compound: Cn1cc(CNCC2CCN(c3ncc(C(=O)NO)cn3)CC2)c2ccccc21 [quisinostat]
Assay: log2 fold change, soluble protein after heating vs DMSO (PISA); higher = thermal stabilisation; K562 lysate, 10 uM; active = over 0.2 and 3.5 SD of the protein, either way, in both replicates (recomputed)
Method in brief: (§1)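 The values are log-two fold changes in thermal stability compared with solvent controls and come from duplicates. They were obtained by TMTpro 16plex LC-MS/MS, with channel sums equalised, on the supernatant after 21,000xg for 90 min. That supernatant came from crude K562 extract at 1 mg/mL protein treated with 10 μM compound for 30 min, heated for 3 min across 48°C-58°C, pooled and brought to 0.5% NP-40 at 4°C.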

Q: With SLIRP (UniProt Q9GZT3) as the target, how does the log2 fold change read?
A: inactive: 0.043

Q: Which log2 fold change does the source give for SLC25A13 isoform 2 (UniProt Q9UJS0) here?
A: inactive: 0.054

Q: For SLC2A1 (UniProt P11166), which log2 fold change is on record?
A: inactive: 0.137

Q: SLC25A22 (UniProt Q9H936) was tested. Which log2 fold change did it give?
A: inactive: 0.01

Q: SLC44A2 (UniProt Q8IWA5) was tested. Which log2 fold change did it give?
A: inactive: 0.023

Q: With SLC33A1 (UniProt O00400) as the target, how does the log2 fold change read?
A: inactive: -0.047

Q: For SLC25A3 isoform 2 (UniProt Q00325), which log2 fold change is on record?
A: inactive: -0.065

Q: SLC38A9 (UniProt Q8NBW4) was tested. Which log2 fold change did it give?
A: inactive: -0.082

Q: For SLC6A6 (UniProt P31641), which log2 fold change is on record?
A: inactive: -0.073

Q: With SLC30A7 (UniProt Q8NEW0) as the target, how does the log2 fold change read?
A: inactive: 0.108

Q: How did the log2 fold change turn out when SLC7A5 (UniProt Q01650) was run?
A: inactive: -0.106

Q: Which log2 fold change does the source give for SLC38A7 (UniProt Q9NVC3) here?
A: inactive: -0.059

Q: SLC43A3 isoform 2 (UniProt Q8NBI5) was tested. Which log2 fold change did it give?
A: inactive: 0.013

Q: How did the log2 fold change turn out when SLC4A1AP (UniProt Q9BWU0) was run?
A: inactive: -0.022

Q: Which log2 fold change does the source give for SLC27A2 (UniProt O14975) here?
A: inactive: -0.078

Q: For SLC36A4 (UniProt Q6YBV0), which log2 fold change is on record?
A: inactive: 0.01

Q: SLC26A6 (UniProt Q9BXS9) was tested. Which log2 fold change did it give?
A: inactive: 0.006

Q: Which log2 fold change does the source give for SLC25A21 (UniProt Q9BQT8) here?
A: inactive: -0.03

Q: Which log2 fold change does the source give for SLC25A4 (UniProt P12235) here?
A: inactive: 0.064

Q: With SLC38A10 (UniProt Q9HBR0) as the target, how does the log2 fold change read?
A: inactive: -0.013

Q: How did the log2 fold change turn out when SLC25A42 (UniProt Q86VD7) was run?
A: inactive: -0.092

Q: SMAP (UniProt O00193) was tested. Which log2 fold change did it give?
A: inactive: 0.121

Q: SLC3A2 isoform 3 (UniProt P08195) was tested. Which log2 fold change did it give?
A: inactive: -0.004

Q: Which log2 fold change does the source give for SLC25A25 isoform 3 (UniProt Q6KCM7) here?
A: inactive: -0.038

Q: Which log2 fold change does the source give for SLC9A1 (UniProt P19634) here?
A: inactive: 0.001

Q: SLC4A7 isoform 7 (UniProt Q9Y6M7) was tested. Which log2 fold change did it give?
A: inactive: -0.069

Q: SLC35A4 (UniProt L0R6Q1) was tested. Which log2 fold change did it give?
A: inactive: -0.061

Q: With SLC9A3R2 (UniProt Q15599) as the target, how does the log2 fold change read?
A: inactive: -0.04

Q: With SMAD4 (UniProt Q13485) as the target, how does the log2 fold change read?
A: inactive: -0.028

Q: SLC6A8 isoform 2 (UniProt P48029) was tested. Which log2 fold change did it give?
A: inactive: -0.153

Q: Which log2 fold change does the source give for SLC4A2 (UniProt P04920) here?
A: inactive: 0.003

Q: How did the log2 fold change turn out when SLC30A1 (UniProt Q9Y6M5) was run?
A: inactive: -0.009

Q: SLC25A31 (UniProt Q9H0C2) was tested. Which log2 fold change did it give?
A: inactive: -0.003

Q: For SMAP2 (UniProt Q8WU79), which log2 fold change is on record?
A: inactive: 0.072

Q: For SLC6A8 (UniProt P48029), which log2 fold change is on record?
A: inactive: 0.006

Q: With SLC25A5 (UniProt P05141) as the target, how does the log2 fold change read?
A: inactive: 0.078

Q: For SLC25A1 (UniProt P53007), which log2 fold change is on record?
A: inactive: 0.039

Q: For SMAP1 isoform 2 (UniProt Q8IYB5), which log2 fold change is on record?
A: inactive: 0.024

Compound: Cn1cncc1[C@@](N)(c1ccc(Cl)cc1)c1ccc2c(c1)c(-c1cccc(Cl)c1)cc(=O)n2C [tipifarnib]
Assay: as above
Method in brief: as §1

Q: Which log2 fold change does the source give for SLIRP (UniProt Q9GZT3) here?
A: inactive: 0.01

Q: For SLC25A13 isoform 2 (UniProt Q9UJS0), which log2 fold change is on record?
A: inactive: -0.018

Q: With SLC2A1 (UniProt P11166) as the target, how does the log2 fold change read?
A: inactive: -0.015

Q: Which log2 fold change does the source give for SLC25A22 (UniProt Q9H936) here?
A: inactive: 0.004

Q: How did the log2 fold change turn out when SLC44A2 (UniProt Q8IWA5) was run?
A: inactive: -0.038

Q: Which log2 fold change does the source give for SLC33A1 (UniProt O00400) here?
A: inactive: -0.071

Q: How did the log2 fold change turn out when SLC25A3 isoform 2 (UniProt Q00325) was run?
A: inactive: 0.013

Q: SLC38A9 (UniProt Q8NBW4) was tested. Which log2 fold change did it give?
A: inactive: -0.049

Q: Which log2 fold change does the source give for SLC6A6 (UniProt P31641) here?
A: inactive: -0.021

Q: SLC30A7 (UniProt Q8NEW0) was tested. Which log2 fold change did it give?
A: inactive: 0.387

Q: With SLC7A5 (UniProt Q01650) as the target, how does the log2 fold change read?
A: inactive: 0.003

Q: Which log2 fold change does the source give for SLC38A7 (UniProt Q9NVC3) here?
A: inactive: 0.03

Q: Which log2 fold change does the source give for SLC43A3 isoform 2 (UniProt Q8NBI5) here?
A: inactive: -0.007

Q: Which log2 fold change does the source give for SLC4A1AP (UniProt Q9BWU0) here?
A: inactive: -0.024

Q: For SLC27A2 (UniProt O14975), which log2 fold change is on record?
A: inactive: 0.031

Q: For SLC36A4 (UniProt Q6YBV0), which log2 fold change is on record?
A: inactive: -0.084

Q: How did the log2 fold change turn out when SLC26A6 (UniProt Q9BXS9) was run?
A: inactive: 0.05

Q: How did the log2 fold change turn out when SLC25A21 (UniProt Q9BQT8) was run?
A: inactive: 0.028

Q: How did the log2 fold change turn out when SLC25A4 (UniProt P12235) was run?
A: inactive: 0.006

Q: SLC38A10 (UniProt Q9HBR0) was tested. Which log2 fold change did it give?
A: inactive: 0.047

Q: SLC25A42 (UniProt Q86VD7) was tested. Which log2 fold change did it give?
A: inactive: 0.011

Q: Which log2 fold change does the source give for SMAP (UniProt O00193) here?
A: inactive: 0.028

Q: How did the log2 fold change turn out when SLC3A2 isoform 3 (UniProt P08195) was run?
A: inactive: 0.006

Q: How did the log2 fold change turn out when SLC25A25 isoform 3 (UniProt Q6KCM7) was run?
A: inactive: -0.006

Q: How did the log2 fold change turn out when SLC9A1 (UniProt P19634) was run?
A: inactive: 0.011

Q: How did the log2 fold change turn out when SLC4A7 isoform 7 (UniProt Q9Y6M7) was run?
A: inactive: -0.035

Q: SLC35A4 (UniProt L0R6Q1) was tested. Which log2 fold change did it give?
A: inactive: -0.025

Q: How did the log2 fold change turn out when SLC9A3R2 (UniProt Q15599) was run?
A: inactive: -0.017

Q: With SMAD4 (UniProt Q13485) as the target, how does the log2 fold change read?
A: inactive: 0.022

Q: For SLC6A8 isoform 2 (UniProt P48029), which log2 fold change is on record?
A: inactive: 0.001

Q: SLC4A2 (UniProt P04920) was tested. Which log2 fold change did it give?
A: inactive: -0.052

Q: For SLC30A1 (UniProt Q9Y6M5), which log2 fold change is on record?
A: inactive: -0.017

Q: SLC25A31 (UniProt Q9H0C2) was tested. Which log2 fold change did it give?
A: inactive: 0.009

Q: How did the log2 fold change turn out when SMAP2 (UniProt Q8WU79) was run?
A: inactive: -0.038

Q: With SLC6A8 (UniProt P48029) as the target, how does the log2 fold change read?
A: inactive: -0.063

Q: How did the log2 fold change turn out when SLC25A5 (UniProt P05141) was run?
A: inactive: 0.011

Q: With SLC25A1 (UniProt P53007) as the target, how does the log2 fold change read?
A: inactive: 0.007

Q: Which log2 fold change does the source give for SMAP1 isoform 2 (UniProt Q8IYB5) here?
A: inactive: 0.007
